Some of the results follow. The data scatter; read single values as rough.

Sequences of proteins named here, by UniProt entry; tags and fusion partners are left off. A change or cut given only in a name is not applied to a line headed by its entry. Residues count along the entry.
UniProt Q6P5Z2: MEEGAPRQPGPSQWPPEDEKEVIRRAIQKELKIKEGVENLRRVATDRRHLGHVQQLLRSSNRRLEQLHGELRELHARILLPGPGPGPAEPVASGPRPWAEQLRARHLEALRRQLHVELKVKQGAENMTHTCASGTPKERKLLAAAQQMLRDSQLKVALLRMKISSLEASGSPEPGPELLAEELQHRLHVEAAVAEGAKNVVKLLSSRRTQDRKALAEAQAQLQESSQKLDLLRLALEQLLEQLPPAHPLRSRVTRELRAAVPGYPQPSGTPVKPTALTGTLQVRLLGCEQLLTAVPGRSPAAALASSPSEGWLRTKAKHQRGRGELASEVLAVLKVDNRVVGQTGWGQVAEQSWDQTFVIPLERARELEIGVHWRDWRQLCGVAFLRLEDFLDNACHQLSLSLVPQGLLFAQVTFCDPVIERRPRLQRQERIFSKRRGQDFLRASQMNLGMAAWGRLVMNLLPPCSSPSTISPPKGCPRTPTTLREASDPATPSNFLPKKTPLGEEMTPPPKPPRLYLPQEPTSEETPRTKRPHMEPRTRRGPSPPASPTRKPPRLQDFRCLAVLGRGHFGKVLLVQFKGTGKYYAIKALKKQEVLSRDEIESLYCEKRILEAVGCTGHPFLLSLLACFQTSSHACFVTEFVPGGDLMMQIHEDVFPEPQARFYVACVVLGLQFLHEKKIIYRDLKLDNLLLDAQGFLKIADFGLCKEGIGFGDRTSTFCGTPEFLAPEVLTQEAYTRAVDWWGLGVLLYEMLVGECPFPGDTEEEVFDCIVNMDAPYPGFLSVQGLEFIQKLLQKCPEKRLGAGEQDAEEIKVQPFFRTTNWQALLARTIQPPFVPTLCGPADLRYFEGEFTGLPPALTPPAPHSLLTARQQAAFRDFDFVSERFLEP
UniProt Q99570: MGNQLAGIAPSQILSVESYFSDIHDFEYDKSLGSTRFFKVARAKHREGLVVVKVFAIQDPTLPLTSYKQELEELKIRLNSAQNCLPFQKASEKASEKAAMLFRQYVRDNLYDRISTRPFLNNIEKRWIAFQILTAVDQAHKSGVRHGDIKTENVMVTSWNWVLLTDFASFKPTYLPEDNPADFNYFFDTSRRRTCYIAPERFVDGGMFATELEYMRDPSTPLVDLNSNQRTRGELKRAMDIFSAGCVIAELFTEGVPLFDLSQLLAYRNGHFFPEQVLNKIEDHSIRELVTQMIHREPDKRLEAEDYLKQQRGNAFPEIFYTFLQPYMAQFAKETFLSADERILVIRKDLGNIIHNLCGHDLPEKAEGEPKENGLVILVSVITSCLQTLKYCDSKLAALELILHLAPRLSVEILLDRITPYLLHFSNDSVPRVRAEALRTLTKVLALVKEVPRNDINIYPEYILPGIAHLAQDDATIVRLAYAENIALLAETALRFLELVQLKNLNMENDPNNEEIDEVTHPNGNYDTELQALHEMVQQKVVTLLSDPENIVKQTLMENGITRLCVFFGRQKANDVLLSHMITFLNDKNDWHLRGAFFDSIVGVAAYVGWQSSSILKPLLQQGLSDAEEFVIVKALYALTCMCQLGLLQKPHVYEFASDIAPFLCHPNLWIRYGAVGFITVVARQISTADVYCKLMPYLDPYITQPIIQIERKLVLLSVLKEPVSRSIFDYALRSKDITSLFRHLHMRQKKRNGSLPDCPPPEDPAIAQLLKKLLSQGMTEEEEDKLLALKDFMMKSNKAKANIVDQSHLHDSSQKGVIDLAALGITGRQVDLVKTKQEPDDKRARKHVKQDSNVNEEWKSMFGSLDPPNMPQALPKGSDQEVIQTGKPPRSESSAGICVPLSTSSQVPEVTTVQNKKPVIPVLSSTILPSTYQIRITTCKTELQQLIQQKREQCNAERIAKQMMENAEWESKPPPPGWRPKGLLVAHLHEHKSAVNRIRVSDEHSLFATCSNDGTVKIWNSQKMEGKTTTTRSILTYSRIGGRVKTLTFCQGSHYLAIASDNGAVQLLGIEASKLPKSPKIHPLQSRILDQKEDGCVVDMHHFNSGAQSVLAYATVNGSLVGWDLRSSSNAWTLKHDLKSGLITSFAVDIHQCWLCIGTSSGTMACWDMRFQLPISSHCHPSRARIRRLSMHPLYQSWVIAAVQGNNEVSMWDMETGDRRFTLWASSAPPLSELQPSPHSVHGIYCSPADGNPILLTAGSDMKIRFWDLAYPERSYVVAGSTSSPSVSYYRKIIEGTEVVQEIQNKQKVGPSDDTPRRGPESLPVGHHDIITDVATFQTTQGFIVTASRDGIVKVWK
UniProt Q92508, 366-396: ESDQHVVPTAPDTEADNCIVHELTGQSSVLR
UniProt O75417: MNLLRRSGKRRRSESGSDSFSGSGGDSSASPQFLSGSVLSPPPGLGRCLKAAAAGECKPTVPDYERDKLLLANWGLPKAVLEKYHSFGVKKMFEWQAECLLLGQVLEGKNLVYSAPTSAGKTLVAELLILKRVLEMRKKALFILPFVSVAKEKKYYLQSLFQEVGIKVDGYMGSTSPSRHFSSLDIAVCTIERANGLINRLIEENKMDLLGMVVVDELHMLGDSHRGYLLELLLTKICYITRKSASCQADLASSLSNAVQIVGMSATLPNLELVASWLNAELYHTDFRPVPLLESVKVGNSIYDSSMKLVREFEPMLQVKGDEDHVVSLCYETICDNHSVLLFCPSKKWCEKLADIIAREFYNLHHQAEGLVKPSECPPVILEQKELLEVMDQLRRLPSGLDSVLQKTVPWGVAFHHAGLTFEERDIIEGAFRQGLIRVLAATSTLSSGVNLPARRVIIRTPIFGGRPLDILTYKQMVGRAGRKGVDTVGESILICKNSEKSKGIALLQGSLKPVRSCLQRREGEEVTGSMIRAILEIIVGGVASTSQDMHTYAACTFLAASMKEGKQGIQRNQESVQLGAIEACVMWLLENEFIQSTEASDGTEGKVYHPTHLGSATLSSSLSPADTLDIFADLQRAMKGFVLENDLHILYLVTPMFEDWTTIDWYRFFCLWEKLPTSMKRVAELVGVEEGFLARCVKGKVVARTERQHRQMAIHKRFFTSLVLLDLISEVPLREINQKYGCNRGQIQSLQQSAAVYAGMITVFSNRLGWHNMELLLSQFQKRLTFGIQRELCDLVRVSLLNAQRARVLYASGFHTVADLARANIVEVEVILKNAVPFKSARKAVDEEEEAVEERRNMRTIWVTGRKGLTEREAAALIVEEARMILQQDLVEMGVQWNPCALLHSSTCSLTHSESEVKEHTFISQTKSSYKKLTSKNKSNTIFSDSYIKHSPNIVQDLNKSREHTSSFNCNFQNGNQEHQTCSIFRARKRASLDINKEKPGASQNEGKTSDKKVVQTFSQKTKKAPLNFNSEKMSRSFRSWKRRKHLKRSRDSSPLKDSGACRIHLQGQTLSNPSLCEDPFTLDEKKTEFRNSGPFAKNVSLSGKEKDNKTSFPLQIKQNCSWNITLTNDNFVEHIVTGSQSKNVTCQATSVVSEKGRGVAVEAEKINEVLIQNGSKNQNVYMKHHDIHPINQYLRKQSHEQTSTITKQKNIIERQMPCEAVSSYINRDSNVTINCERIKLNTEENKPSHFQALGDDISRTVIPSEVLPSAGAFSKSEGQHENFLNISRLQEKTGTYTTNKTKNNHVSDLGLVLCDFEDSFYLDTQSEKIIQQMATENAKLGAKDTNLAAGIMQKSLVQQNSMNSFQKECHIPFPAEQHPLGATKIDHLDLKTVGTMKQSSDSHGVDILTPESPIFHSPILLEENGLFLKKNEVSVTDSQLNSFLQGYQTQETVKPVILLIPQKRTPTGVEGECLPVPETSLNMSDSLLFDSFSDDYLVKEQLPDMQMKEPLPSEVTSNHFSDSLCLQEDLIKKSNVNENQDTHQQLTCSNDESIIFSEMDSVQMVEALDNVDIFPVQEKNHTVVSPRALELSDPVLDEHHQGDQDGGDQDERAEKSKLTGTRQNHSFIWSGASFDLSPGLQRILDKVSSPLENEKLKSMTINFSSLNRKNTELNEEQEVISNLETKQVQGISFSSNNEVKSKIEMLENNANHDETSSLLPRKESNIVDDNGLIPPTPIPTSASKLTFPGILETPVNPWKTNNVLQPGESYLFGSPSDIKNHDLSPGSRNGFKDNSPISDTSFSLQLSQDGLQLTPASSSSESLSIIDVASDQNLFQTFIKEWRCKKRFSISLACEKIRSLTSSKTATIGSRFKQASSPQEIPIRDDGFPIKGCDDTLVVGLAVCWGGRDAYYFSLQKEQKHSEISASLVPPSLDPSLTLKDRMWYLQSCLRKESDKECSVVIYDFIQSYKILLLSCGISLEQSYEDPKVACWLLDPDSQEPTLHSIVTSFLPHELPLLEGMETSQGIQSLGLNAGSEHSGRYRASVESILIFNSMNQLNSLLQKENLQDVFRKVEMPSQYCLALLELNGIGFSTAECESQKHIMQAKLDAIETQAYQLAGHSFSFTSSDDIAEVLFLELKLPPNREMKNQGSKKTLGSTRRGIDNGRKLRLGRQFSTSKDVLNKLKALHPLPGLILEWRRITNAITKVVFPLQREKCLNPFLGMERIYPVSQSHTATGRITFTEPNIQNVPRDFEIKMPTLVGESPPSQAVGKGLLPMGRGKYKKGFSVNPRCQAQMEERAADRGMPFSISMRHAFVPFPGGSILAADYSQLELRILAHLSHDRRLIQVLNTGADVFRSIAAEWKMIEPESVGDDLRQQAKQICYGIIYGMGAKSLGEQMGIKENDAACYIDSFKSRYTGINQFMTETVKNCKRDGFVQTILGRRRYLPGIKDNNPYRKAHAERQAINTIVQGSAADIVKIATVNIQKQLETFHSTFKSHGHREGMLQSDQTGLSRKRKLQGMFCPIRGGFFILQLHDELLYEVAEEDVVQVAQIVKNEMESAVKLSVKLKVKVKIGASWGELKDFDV
UniProt Q9UPP1: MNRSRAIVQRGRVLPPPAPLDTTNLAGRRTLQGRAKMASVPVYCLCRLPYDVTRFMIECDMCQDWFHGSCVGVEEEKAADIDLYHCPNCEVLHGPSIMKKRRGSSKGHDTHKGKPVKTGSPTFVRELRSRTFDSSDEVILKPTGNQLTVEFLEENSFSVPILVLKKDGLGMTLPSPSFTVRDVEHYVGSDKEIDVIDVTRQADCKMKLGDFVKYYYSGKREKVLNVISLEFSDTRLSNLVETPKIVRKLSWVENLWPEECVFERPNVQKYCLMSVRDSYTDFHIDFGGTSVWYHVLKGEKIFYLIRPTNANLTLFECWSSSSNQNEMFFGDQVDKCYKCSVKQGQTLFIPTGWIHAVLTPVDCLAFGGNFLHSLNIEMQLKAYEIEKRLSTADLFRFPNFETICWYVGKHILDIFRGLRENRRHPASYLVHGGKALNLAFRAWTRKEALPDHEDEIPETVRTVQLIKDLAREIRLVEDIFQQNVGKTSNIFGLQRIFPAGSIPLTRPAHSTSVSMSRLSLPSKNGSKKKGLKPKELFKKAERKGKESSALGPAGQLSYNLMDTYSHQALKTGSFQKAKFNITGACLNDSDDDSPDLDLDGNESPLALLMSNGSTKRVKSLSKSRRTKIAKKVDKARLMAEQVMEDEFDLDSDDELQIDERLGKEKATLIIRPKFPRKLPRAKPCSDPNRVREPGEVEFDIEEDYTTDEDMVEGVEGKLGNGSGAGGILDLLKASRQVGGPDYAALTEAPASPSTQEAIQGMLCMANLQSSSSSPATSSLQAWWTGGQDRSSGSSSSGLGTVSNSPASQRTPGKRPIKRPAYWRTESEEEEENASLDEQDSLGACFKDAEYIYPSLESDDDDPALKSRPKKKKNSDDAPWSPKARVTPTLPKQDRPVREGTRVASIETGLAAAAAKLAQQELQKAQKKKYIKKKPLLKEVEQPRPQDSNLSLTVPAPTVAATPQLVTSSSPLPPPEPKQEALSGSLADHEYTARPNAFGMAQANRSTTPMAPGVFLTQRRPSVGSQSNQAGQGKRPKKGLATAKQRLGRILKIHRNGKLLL
UniProt P49005: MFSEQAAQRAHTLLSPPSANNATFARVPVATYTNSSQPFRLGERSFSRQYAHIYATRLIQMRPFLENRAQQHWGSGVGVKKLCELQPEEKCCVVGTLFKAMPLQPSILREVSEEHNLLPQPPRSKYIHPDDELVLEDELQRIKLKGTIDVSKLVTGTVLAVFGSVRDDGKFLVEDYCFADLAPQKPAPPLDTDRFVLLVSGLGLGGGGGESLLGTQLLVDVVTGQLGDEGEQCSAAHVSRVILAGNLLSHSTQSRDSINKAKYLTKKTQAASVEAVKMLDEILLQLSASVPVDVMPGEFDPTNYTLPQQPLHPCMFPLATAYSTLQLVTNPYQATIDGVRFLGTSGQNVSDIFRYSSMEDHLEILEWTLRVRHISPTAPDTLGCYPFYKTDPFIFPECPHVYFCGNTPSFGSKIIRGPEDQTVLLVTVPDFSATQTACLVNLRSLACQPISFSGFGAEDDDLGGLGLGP
UniProt Q14442: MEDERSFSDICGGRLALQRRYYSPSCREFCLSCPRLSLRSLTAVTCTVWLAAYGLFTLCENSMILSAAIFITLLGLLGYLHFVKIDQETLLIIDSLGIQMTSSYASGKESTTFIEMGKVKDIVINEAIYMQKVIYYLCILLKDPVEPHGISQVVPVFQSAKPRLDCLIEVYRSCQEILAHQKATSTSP

The values that follow come from the supplement of paper PMC11732987, “Enantioselective OTUD7B fragment discovery through chemoproteomics screening and high-throughput optimisation” (Communications Chemistry, 2025).

Compound in one assay: ClCC(=O)N[C@@H]1CCCc2ccccc12
Description: log2 mean competition ratio of IA-DTB cysteine labelling (DMSO/compound) (log2 ratio); higher = stronger cysteine engagement by compound. The following applies: 50 µM; treatment time: 4 h; cell line lysate: HEK293T. The method, then:
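IA-DTB competitive cysteine chemoproteomics in HEK293T RIPA lysate. Lysates were treated with compound 29 or 30 at 50 or 200 µM for 4 h, then IA-DTB (500 µM, 1 h), trypsin-digested, NeutrAvidin-enriched and analysed by diaPASEF. Competition ratio = intensity DMSO / intensity compound (n=4 treated, n=64 DMSO); binding: mean log2 CR ≥ 1 and p ≤ 0.05 plus QC filters. Target is the cysteine site.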
Turning to PHGDH C295, the “log2 mean competition ratio” value was -0.361.

Consider PIAS2 C425 (UniProt O75928), for which the “log2 mean competition ratio” value is -0.167.

As to PITHD1 C187 (UniProt Q9GZP4), the “log2 mean competition ratio” value worked out at 0.163.

Take PKN3 C131 (UniProt Q6P5Z2): the “log2 mean competition ratio” value is -0.247.

As to PIK3R4 C84 (UniProt Q99570), the “log2 mean competition ratio” value amounted to 0.281.

As to PHYH C205 (UniProt O14832), the “log2 mean competition ratio” value was -0.0534.

On to PIEZO1 C383 (UniProt Q92508), for which the “log2 mean competition ratio” value was -0.0552.

In the case of PLD2 C736, the “log2 mean competition ratio” value was 0.016.

As to PLOD2 C379 (UniProt O00469), the “log2 mean competition ratio” value was -0.216.

Take POLR1B C1061 (UniProt Q9H9Y6): the “log2 mean competition ratio” value amounted to 0.0484.

On to PLEKHH2 C257 (UniProt E5RGK1), for which the “log2 mean competition ratio” value came out at 0.18.

Take POLQ C2295 (UniProt O75417): the “log2 mean competition ratio” value came out at 0.488.

Consider PKNOX1 C109 (UniProt P55347), for which the “log2 mean competition ratio” value was -0.307.

Consider PHF8 C684 (UniProt Q9UPP1), for which the “log2 mean competition ratio” value amounted to 0.073.

Turning to POLD2 C83 (UniProt P49005), the “log2 mean competition ratio” value is 0.245.

For the target PMM1 C57 (UniProt Q92871), the “log2 mean competition ratio” value was -0.0525.

As to PIAS3 C620, the “log2 mean competition ratio” value came out at 0.0618.

In the case of PLEKHA2 C191 (UniProt Q9HB19), the “log2 mean competition ratio” value was determined as 0.0637.

As for PIGH C174 (UniProt Q14442), the “log2 mean competition ratio” value was -0.0291.

As to PML C189 (UniProt P29590), the “log2 mean competition ratio” value was -0.156.

Still in this assay, the particulars now being: 200 µM; treatment time: 4 h; cell line lysate: HEK293T.
Regarding PHGDH C295, the “log2 mean competition ratio” value came out at 0.0796.

For PIAS2 C425 (UniProt O75928), the “log2 mean competition ratio” value came to 0.00309.

For PITHD1 C187 (UniProt Q9GZP4), the “log2 mean competition ratio” value turned out to be 0.116.

As for PKN3 C131 (UniProt Q6P5Z2), the “log2 mean competition ratio” value is -0.0157.

With PIK3R4 C84 (UniProt Q99570), the “log2 mean competition ratio” value was found to be 0.0142.

Consider PHYH C205 (UniProt O14832), for which the “log2 mean competition ratio” value is -0.00965.

PIEZO1 C383 (UniProt Q92508): the “log2 mean competition ratio” value was determined as 0.156.

In the case of PLD2 C736, the “log2 mean competition ratio” value is -0.22.

For PLOD2 C379 (UniProt O00469), the “log2 mean competition ratio” value was -0.254.

Turning to POLR1B C1061 (UniProt Q9H9Y6), the “log2 mean competition ratio” value came out at 0.219.

Consider PLEKHH2 C257 (UniProt E5RGK1), for which the “log2 mean competition ratio” value was 0.00576.

Regarding POLQ C2295 (UniProt O75417), the “log2 mean competition ratio” value amounted to 0.391.

On to PKNOX1 C109 (UniProt P55347), for which the “log2 mean competition ratio” value stood at 0.0643.

Take PHF8 C684 (UniProt Q9UPP1): the “log2 mean competition ratio” value worked out at 0.387.

As to POLD2 C83 (UniProt P49005), the “log2 mean competition ratio” value is 0.0677.

For PMM1 C57 (UniProt Q92871), the “log2 mean competition ratio” value turned out to be 0.197.

As to PIAS3 C620, the “log2 mean competition ratio” value turned out to be 0.443.

For the target PLEKHA2 C191 (UniProt Q9HB19), the “log2 mean competition ratio” value amounted to 0.135.

For the target PIGH C174 (UniProt Q14442), the “log2 mean competition ratio” value stood at 0.056.

As for PML C189 (UniProt P29590), the “log2 mean competition ratio” value is -0.0378.
